Data as given in PubChem BioAssay AID1259279 (Sanger Institute, 2017).

Screen: 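Kinase-wide knock-down seeking synergy with BYL719, cetuximab or trametinib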 (primary screen)
Cell system: LS180 human colorectal cancer cells
Knock-down reagent: siRNA pool against human genes
Treatment: anchor drug BYL719 at 1 µM, cetuximab at 5 µg/ml or trametinib at 10 nM, or DMSO vehicle only
Measurement: 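Viability as a fraction of non-targeting control and as a replicate-averaged robust z-score, with separate synergy scores for BYL719, cetuximab and trametinib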
Reading the numbers: viability z-score, no drug: higher = more viable cells after knock-down; viability, no drug: higher = more viable cells; synergy score with BYL719 and synergy score with cetuximab: higher = stronger synthetic lethal synergy with drug
Rule for the call: 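Essential (active) calls need a no-drug viability z-score lower than -3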
Meaning of the calls: active = essential (knock-down alone cuts viability); inactive = no change without drug
The whole screen tested 794 reagents; shown is a part drawn at random. 11 of them (1.4%) were called active. 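Calls reflect knock-down alone in the vehicle arm, not drug synergy.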 Unmarked entries are inactive. Viability is capped at 1. Further read-outs or replicates are left out here. Not given: the amount of reagent, the time to read-out.

no.	gene knocked down	viability z-score, no drug	viability, no drug (fraction)	synergy score with BYL719	synergy score with cetuximab
1	PINK1	0.617	0.974	0.0269	0.0508
2	FOXP1	-2.76	0.605	-0.172	0.0377
3	NUCKS1	0.57	0.968	-0.00993	-0.121
4	NEK8	-1.41	0.753	-0.0311	0.0333
5	GSK3B	0.86	1	-0.201	-0.166
6	NUP107	-1.03	0.793	-0.11	-0.0333
7	PRKCB	-1.64	0.727	-0.176	0.0418
8	CSNK2B	-0.77	0.822	-0.0603	-0.142
9	NEK5	0.86	1	-0.157	-0.077
10	ALK	-2.37	0.648	-0.0284	0.0295
11	MAP2K2	0.0786	0.915	-0.0825	-0.167
12	PANK3	0.86	1	-0.0862	-0.166
13	PCBP1	-0.574	0.844	-0.158	-0.132
14	ITPKB	0.229	0.931	-0.229	-0.185
15	MKNK2	-0.705	0.829	-0.0823	-0.0255
16	CDKL4	0.364	0.946	0.0603	-0.0444
17	PACSIN1	-0.0668	0.899	-0.0291	-0.0456
18	PANK2	0.14	0.922	-0.0211	-0.148
19	STKLD1	-0.834	0.815	-0.025	0.118
20	DYRK1B	-1.2	0.776	-0.1	-0.0221
21	RAD21	-1.94	0.694	-0.149	-0.115
22	CSK	0.155	0.923	-0.13	-0.23
23	CAMK2A	0.413	0.951	-0.0912	-0.11
24	ATR	-0.451	0.857	-0.0997	-0.119
25	CDK15	0.86	1	-0.117	-0.166
26	LCK	0.86	1	-0.0394	0.0189
27	RUNX1	0.86	1	0.234	0.128
28	ACSL6	-0.122	0.893	-0.125	-0.136
29	NEK11	-3.68 (active)	0.504	-0.188	-0.184
30	PI4K2B	0.0957	0.917	-0.211	-0.16
31	FES	-0.503	0.851	-0.155	-0.199
32	EXOSC10	-1.19	0.776	-0.0858	-0.129
33	CALM1	-0.976	0.8	-0.133	-0.122
34	DGKK	0.86	1	0.00738	-0.0157
35	VRK1	0.287	0.938	-0.0341	-0.0652
36	PLK2	0.401	0.95	-0.103	-0.185
37	PRKG2	0.86	1	-0.0258	-0.07
38	NEK6	0.86	1	-0.201	-0.166
39	GRK2	0.298	0.939	0.195	0.0259
40	RPS6KL1	-1.15	0.781	-0.0966	-0.176
41	MKNK1	0.0357	0.91	-0.273	-0.238
42	PAK2	0.86	1	-0.0459	0.0174
43	TNNI3K	0.86	1	-0.144	-0.166
44	GRK3	0.86	1	-0.154	-0.135
45	PRKCI	0.86	1	-0.0137	0.0742
46	KSR1	-2.48	0.636	-0.0804	-0.0204
47	MAP3K20	0.86	1	-0.0806	-0.131
48	NME1	0.86	1	-0.201	-0.166
49	PANK1	0.86	1	-0.201	-0.0497
50	GUCY2C	0.86	1	-0.103	-0.166

Reagents listed above with an active call (1):
gene knocked down	viability z-score, no drug	viability, no drug (fraction)	synergy score with BYL719	synergy score with cetuximab
NEK11	-3.68 (active)	0.504	-0.188	-0.184
